Experimental data taken from the supplement of paper PMC11006884.
The entries are a selection whose mix differs from that of the whole data set. Single values of this set are uncertain.

Chains of the proteins cited; added tags and fusions are not shown. Lines headed by an entry give the natural chain unless they say otherwise; changes in a name come on top.
UniProt P49711: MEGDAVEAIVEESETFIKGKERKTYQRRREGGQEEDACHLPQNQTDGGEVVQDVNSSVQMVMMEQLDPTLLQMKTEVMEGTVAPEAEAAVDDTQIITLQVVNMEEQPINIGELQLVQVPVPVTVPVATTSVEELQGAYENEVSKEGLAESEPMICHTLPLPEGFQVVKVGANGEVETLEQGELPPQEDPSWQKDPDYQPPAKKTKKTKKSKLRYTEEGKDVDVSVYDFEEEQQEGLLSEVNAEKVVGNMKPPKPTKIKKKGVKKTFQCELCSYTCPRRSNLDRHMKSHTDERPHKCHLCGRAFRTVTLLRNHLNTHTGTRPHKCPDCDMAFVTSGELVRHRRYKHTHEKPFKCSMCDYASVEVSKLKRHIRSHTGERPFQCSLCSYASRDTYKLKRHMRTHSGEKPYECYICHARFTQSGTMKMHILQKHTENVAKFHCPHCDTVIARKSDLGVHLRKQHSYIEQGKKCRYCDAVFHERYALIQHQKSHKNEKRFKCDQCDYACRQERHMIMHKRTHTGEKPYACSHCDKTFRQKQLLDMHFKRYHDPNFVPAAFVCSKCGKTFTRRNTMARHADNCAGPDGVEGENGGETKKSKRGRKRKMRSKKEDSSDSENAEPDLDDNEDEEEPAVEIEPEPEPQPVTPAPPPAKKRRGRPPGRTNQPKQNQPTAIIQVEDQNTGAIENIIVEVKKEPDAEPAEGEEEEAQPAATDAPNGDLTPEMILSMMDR
UniProt P50395: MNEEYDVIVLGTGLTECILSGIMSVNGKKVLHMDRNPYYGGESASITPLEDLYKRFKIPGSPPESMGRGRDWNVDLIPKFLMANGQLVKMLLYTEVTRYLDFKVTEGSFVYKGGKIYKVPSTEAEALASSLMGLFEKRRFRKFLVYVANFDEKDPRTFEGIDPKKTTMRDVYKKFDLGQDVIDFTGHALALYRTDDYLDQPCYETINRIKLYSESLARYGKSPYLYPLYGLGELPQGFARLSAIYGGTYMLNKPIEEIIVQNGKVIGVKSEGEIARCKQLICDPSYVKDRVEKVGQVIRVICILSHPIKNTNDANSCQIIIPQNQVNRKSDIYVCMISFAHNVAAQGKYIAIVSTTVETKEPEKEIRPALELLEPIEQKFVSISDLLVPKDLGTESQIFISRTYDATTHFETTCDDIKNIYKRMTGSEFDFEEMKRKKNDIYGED
UniProt P46060: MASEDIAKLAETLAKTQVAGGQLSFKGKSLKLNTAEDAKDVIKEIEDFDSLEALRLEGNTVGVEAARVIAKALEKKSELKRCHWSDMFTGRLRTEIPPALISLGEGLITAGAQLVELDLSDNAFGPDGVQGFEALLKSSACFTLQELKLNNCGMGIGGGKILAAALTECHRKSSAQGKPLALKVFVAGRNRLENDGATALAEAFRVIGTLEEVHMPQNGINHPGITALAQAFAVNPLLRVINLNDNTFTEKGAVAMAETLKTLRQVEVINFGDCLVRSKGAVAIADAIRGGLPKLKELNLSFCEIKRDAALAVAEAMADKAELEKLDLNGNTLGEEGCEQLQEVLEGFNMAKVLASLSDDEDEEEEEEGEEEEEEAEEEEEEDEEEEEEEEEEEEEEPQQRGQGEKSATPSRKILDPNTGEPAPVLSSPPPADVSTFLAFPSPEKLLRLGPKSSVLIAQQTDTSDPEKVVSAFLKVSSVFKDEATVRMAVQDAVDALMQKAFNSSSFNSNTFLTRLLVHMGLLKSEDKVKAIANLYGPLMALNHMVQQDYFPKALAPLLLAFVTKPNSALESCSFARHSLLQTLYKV
UniProt P49589: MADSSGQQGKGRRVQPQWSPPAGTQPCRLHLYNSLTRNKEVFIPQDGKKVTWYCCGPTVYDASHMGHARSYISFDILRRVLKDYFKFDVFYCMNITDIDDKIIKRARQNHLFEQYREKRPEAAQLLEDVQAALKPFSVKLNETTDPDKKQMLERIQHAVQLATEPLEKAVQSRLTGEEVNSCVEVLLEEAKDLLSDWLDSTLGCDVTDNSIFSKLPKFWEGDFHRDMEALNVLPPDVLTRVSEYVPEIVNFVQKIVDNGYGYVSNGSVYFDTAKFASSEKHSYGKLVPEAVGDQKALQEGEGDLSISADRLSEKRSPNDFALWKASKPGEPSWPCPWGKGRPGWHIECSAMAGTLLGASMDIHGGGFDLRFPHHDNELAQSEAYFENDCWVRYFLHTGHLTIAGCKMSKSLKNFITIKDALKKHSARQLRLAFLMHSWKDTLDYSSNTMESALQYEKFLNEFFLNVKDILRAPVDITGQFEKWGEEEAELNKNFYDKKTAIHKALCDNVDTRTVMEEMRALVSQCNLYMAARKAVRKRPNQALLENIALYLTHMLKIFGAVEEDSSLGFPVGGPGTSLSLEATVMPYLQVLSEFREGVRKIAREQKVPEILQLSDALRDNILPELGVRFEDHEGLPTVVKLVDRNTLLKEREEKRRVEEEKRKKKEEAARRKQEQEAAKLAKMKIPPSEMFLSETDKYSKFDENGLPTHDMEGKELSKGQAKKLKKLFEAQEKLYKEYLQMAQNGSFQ
UniProt P46063: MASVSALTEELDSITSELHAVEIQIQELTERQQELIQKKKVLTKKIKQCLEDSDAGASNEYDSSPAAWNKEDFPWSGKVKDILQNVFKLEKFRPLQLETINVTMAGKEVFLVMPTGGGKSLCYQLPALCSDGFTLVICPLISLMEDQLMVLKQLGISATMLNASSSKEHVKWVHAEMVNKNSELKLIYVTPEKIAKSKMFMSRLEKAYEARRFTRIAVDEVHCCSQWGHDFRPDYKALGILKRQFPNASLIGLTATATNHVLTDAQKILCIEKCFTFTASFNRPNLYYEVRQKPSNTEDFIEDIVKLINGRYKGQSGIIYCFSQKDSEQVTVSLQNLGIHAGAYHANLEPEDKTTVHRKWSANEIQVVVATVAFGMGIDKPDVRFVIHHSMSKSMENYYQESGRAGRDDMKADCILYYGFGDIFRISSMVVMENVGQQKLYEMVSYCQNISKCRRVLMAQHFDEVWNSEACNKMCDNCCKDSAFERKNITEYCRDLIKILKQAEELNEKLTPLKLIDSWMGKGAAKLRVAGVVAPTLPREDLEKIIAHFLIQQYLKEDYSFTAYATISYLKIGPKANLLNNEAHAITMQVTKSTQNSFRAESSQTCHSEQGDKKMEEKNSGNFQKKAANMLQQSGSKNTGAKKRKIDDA
UniProt P50502: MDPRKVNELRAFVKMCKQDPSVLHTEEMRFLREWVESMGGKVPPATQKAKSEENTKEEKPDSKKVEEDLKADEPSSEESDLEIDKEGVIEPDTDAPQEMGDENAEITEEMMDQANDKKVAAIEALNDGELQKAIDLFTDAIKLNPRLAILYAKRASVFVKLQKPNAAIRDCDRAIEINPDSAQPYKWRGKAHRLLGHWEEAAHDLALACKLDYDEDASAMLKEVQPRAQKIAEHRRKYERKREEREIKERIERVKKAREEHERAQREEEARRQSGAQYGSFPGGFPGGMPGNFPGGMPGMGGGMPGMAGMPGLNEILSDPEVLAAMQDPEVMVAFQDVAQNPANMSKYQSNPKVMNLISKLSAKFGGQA
UniProt P45973, whole entry, looked up: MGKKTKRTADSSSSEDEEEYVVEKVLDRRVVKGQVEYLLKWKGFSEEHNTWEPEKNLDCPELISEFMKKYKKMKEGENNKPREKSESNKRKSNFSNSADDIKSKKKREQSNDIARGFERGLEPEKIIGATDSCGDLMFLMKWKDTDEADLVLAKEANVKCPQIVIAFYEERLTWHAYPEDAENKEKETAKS
UniProt P50851: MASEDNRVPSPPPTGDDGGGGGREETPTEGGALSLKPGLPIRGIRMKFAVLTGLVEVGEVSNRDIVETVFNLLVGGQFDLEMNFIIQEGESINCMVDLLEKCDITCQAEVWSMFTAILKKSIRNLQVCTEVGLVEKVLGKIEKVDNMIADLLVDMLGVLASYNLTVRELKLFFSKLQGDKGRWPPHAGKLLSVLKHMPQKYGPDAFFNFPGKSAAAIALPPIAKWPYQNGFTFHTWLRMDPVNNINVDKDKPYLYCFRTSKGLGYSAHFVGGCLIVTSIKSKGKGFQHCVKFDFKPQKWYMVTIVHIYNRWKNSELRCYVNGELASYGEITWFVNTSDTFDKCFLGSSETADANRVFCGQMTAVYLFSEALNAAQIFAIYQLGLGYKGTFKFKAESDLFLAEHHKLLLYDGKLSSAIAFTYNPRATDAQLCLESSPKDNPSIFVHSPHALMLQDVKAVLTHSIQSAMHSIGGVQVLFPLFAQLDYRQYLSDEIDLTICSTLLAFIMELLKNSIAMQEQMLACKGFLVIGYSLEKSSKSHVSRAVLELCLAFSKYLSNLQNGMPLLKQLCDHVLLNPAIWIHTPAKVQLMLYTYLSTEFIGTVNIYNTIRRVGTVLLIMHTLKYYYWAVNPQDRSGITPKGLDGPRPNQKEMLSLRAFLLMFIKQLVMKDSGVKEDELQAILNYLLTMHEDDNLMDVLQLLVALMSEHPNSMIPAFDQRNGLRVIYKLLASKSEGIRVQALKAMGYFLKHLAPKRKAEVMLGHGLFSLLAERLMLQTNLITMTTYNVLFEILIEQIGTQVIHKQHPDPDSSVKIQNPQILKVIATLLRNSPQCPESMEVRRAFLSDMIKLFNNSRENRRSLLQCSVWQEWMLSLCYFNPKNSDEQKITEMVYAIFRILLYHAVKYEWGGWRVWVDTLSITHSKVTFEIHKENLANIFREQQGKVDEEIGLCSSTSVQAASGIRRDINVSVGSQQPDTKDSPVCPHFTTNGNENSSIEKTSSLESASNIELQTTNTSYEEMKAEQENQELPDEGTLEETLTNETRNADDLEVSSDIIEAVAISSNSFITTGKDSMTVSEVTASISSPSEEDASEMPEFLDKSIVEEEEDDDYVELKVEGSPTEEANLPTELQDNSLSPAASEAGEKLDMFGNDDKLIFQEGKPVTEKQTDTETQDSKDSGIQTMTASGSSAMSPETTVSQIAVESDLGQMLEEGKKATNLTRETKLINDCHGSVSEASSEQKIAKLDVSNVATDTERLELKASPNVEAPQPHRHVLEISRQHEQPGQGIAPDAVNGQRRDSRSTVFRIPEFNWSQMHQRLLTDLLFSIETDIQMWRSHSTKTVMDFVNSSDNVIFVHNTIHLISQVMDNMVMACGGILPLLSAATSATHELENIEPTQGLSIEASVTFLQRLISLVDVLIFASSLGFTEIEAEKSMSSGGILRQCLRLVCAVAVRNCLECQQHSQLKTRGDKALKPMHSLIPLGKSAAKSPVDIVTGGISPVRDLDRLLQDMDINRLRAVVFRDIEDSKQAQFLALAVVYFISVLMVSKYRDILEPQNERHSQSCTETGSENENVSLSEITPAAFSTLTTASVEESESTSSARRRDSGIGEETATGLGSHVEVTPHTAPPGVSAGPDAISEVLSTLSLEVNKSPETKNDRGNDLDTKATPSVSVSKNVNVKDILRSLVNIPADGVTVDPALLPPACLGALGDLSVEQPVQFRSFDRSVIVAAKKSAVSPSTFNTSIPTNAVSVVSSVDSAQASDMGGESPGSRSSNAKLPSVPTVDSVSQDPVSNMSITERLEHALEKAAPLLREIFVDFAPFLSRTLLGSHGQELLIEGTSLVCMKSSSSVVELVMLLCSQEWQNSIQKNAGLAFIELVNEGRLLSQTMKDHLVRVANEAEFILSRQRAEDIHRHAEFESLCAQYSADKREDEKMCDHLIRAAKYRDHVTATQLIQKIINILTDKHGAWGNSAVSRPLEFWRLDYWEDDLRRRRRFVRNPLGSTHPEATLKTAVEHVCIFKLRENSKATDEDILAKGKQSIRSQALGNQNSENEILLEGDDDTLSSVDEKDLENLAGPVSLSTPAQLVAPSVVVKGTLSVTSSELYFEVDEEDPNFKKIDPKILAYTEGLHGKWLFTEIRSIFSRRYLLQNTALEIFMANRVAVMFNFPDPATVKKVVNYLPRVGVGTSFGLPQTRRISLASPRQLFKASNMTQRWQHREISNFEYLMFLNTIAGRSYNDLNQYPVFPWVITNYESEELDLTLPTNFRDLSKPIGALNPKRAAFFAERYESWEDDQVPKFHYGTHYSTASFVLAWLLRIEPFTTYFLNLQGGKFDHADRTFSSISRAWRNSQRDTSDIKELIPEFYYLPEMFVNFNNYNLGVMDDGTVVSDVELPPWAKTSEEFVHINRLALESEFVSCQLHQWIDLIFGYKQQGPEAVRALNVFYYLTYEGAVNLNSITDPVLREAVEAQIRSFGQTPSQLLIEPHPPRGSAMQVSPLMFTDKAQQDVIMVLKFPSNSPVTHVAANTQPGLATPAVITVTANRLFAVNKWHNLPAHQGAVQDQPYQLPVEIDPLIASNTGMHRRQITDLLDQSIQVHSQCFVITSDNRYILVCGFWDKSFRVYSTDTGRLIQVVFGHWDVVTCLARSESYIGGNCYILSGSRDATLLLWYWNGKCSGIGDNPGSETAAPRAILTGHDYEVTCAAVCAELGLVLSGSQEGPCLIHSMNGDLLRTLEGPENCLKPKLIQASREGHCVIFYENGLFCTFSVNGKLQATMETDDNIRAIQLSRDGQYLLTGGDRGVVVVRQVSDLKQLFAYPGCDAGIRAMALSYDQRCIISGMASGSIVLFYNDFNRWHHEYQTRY

Each target was assayed with COC(=O)/C=C/c1ccccc1 [methyl cinnamate] (assay: log2 ratio of iodoacetamide-alkyne labeling of the cysteine site, DMSO over compound (competition); higher = stronger covalent engagement of the cysteine by the compound, active = 1 or more). Conditions: 500 µM; treatment time 1 h; system: HEK293T cell lysate.
Method in brief: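 Reporter intensities give each cysteine's log2 competition ratio as the mean of control channels over the mean of compound channels. The samples were HEK293T lysate (2 mg/mL) given vehicle or electrophile (500 µM, 1 h, ambient temperature), then iodoacetamide alkyne (1 h), followed by click coupling to sCIP-TMT reagents, pooling, trypsin digestion overnight at 37 °C, streptavidin enrichment, acid elution, Orbitrap Eclipse LC-MS/MS with FAIMS and FragPipe quantification. Duplicate channels and three replicates were run, and cysteines quantified in only one replicate were discarded.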

log2 ratio of iodoacetamide-alkyne labeling, inactive:
CTCF C268 (UniProt P49711) 0.171
NSF C250 (UniProt P46459) 0.0683
MAP1B C1814 (UniProt P46821) 0.24
MAP1B C2041 (UniProt P46821) 0.158
RANBP2 C188 (UniProt P49792) 0.107
GDI2 C202 (UniProt P50395) 0.124
RANGAP1 C274 (UniProt P46060) 0.0539
CARS C27 (UniProt P49589) 0.0806
UniProt P49753_C401 0.0801
RECQL C49 (UniProt P46063) 0.146
PTDSS1 C419 (UniProt P48651) -0.111
ST13 C209 (UniProt P50502) 0.153
CBX5 C160 (UniProt P45973) 0.397
FASN C1459 (UniProt P49327) 0.219
GALK1 C322 (UniProt P51570) 0.0825
LRBA C1563 (UniProt P50851) 0.56
